The target in this assay is BCR with a non-CLL-Subset 2 HC / a non-CLL-Subset 2 LC on TKO cells. Kind of assay: FACS binding assay on TKO cells with non-CLL-BCR (Fig. 1E). (In general: Flow cytometry measures light scatter and fluorescence of single cells or particles in a stream.)

These are yes or no findings as the source states them, for the method shown.

B1: AVA-mAb01 (specific monoclonal antibody against CLL Subset-2 BCR) (antibody, V domains shown)
VH: QVQLQQSGPGLVQPSQSLSITCTVSGFSLTSYGIHWVRQSPGKGLEWLGVIWRGGGTDSNAAFMSRLSITKDNSKSQVFFKMNSLQADDTAIYYCARSRYDEEESMNYWGQGTSVTVSS
VL: QIVLTQSPASLSASVGETVTITCRASGNIHSYLAWYQQKQGKSPQLLVYNAKTLADGVPSRFSGSGSGTQYSLKINSLQPEDFGSYYCQHFWNTPPTFGAGTKLELK
Take B1: the binding entry was “no binding”.

Source of the values: EP3543697A1.
